Source: PMC12262889
No constants are given. Whether binding was seen depends on the method and setting. In cells and extracts the contact can be indirect. Here binding means that the protein was enriched with, or labelled near, the bait; the list need not be complete. Tags and fused reporters may be left off the sequences shown.

The chains behind the UniProt entries cited, without tags or fusion partners.
UniProt P38431: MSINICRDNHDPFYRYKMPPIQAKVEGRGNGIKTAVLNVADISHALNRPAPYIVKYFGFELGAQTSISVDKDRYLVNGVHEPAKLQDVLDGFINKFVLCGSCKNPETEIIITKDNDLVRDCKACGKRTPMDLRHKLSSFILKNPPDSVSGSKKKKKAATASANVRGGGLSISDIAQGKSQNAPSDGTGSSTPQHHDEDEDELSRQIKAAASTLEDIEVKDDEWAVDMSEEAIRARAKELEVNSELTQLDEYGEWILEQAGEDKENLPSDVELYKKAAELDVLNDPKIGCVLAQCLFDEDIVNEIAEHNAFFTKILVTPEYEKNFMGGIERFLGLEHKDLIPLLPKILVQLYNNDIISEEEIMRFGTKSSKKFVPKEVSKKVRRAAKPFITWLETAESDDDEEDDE

B1: Ses1 (protein, UniProt P07284 1-462)
chain: MLDINQFIEDKGGNPELIRQSQKARNASVEIVDEIISDYKDWVKTRFELDELNKKFNKLQKDIGLKFKNKEDASGLLAEKEKLTQQKKELTEKEQQEDKDLKKKVFQVGNIVHPSVVVSNDEENNELVRTWKPEDLEAVGPIASVTGKPASLSHHEILLRLDGYDPDRGVKICGHRGYFFRNYGVFLNQALINYGLQFLAAKGYIPLQAPVMMNKELMSKTAQLSEFDEELYKVIDGEDEKYLIATSEQPISAYHSGEWFEKPQEQLPIHYVGYSSCFRREAGSHGKDAWGVFRVHAFEKIEQFVITEPEKSWEEFEKMISYSEEFYKSLKLPYRIVGIVSGELNNAAAKKYDLEAWFPYQKEYKELVSCSNCTDYQSRNLEIRCGIKKMGDREKKYVHCLNSTLAATQRALCCILENYQTEDGLVVPEVLRKYIPGEPEFLPFVNELPKNSTSSKDKKKKN
B2: Rpl17b (protein, UniProt P46990 1-184)
chain: MARYGATSTNPAKSASARGSYLRVSFKNTRETAQAINGWELTKAQKYLDQVLDHQRAIPFRRFNSSIGRTAQGKEFGVTKARWPAKSVKFVQGLLQNAAANAEAKGLDATKLYVSHIQVNQAPKQRRRTYRAHGRINKYESSPSHIELVVTEKEEAVAKAAEKKVVRLTSRQRGRIAAQKRISA
B3: Aco1 (protein, UniProt P19414 17-778)
chain: ATVSNLTRDSKVNQNLLEDHSFINYKQNVETLDIVRKRLNRPFTYAEKILYGHLDDPHGQDIQRGVSYLKLRPDRVACQDATAQMAILQFMSAGLPQVAKPVTVHCDHLIQAQVGGEKDLKRAIDLNKEVYDFLASATAKYNMGFWKPGSGIIHQIVLENYAFPGALIIGTDSHTPNAGGLGQLAIGVGGADAVDVMAGRPWELKAPKILGVKLTGKMNGWTSPKDIILKLAGITTVKGGTGKIVEYFGDGVDTFSATGMGTICNMGAEIGATTSVFPFNKSMIEYLEATGRGKIADFAKLYHKDLLSADKDAEYDEVVEIDLNTLEPYINGPFTPDLATPVSKMKEVAVANNWPLDVRVGLIGSCTNSSYEDMSRSASIVKDAAAHGLKSKTIFTVTPGSEQIRATIERDGQLETFKEFGGIVLANACGPCIGQWDRRDIKKGDKNTIVSSYNRNFTSRNDGNPQTHAFVASPELVTAFAIAGDLRFNPLTDKLKDKDGNEFMLKPPHGDGLPQRGYDAGENTYQAPPADRSTVEVKVSPTSDRLQLLKPFKPWDGKDAKDMPILIKAVGKTTTDHISMAGPWLKYRGHLENISNNYMIGAINAENKKANCVKNVYTGEYKGVPDTARDYRDQGIKWVVIGDENFGEGSSREHAALEPRFLGGFAIITKSFARIHETNLKKQGLLPLNFKNPADYDKINPDDRIDILGLAELAPGKPVTMRVHPKNGKPWDAVLTHTFNDEQIEWFKYGSALNKIKADEKK
B4: Ald4 (protein, UniProt P46367 25-519)
chain: SHLPMTVPIKLPNGLEYEQPTGLFINNKFVPSKQNKTFEVINPSTEEEICHIYEGREDDVEEAVQAADRAFSNGSWNGIDPIDRGKALYRLAELIEQDKDVIASIETLDNGKAISSSRGDVDLVINYLKSSAGFADKIDGRMIDTGRTHFSYTKRQPLGVCGQIIPWNFPLLMWAWKIAPALVTGNTVVLKTAESTPLSALYVSKYIPQAGIPPGVINIVSGFGKIVGEAITNHPKIKKVAFTGSTATGRHIYQSAAAGLKKVTLELGGKSPNIVFADAELKKAVQNIILGIYYNSGEVCCAGSRVYVEESIYDKFIEEFKAASESIKVGDPFDESTFQGAQTSQMQLNKILKYVDIGKNEGATLITGGERLGSKGYFIKPTVFGDVKEDMRIVKEEIFGPVVTVTKFKSADEVINMANDSEYGLAAGIHTSNINTALKVADRVNAGTVWINTYNDFHHAVPFGGFNASGLGREMSVDALQNYLQVKAVRAKLDE
B5: Ald5 (protein, UniProt P40047 24-520)
chain: SQAPLRVPITLPNGFTYEQPTGLFINGEFVASKQKKTFDVINPSNEEKITTVYKAMEDDVDEAVAAAKKAFETKWSIVEPEVRAKALFNLADLVEKHQETLAAIESMDNGKSLFCARGDVALVSKYLRSCGGWADKIYGNVIDTGKNHFTYSIKEPLGVCGQIIPWNFPLLMWSWKIGPALATGNTVVLKPAETTPLSALFASQLCQEAGIPAGVVNILPGSGRVVGERLSAHPDVKKIAFTGSTATGRHIMKVAADTVKKVTLELGGKSPNIVFADADLDKAVKNIAFGIFYNSGEVCCAGSRIYIQDTVYEEVLQKLKDYTESLKVGDPFDEEVFQGAQTSDKQLHKILDYVDVAKSEGARLVTGGARHGSKGYFVKPTVFADVKEDMRIVKEEVFGPIVTVSKFSTVDEVIAMANDSQYGLAAGIHTNDINKAVDVSKRVKAGTVWINTYNNFHQNVPFGGFGQSGIGREMGEAALSNYTQTKSVRIAIDKPIR
B6: translation initiation factor eIF-4B (Tif3) (protein, UniProt P34167 1-436)
chain: MAPPKKTVKKMDLTSFLNDDTFGSSWAEEDVDLNKITIPIETANANTIPLSELAHAKNNSNNTRSGGFGGSFGGRSRLDPALGGGSSDRREEYPVPDAPPYRAVINNIPWDITPEGVQAWVEDGLVKPEAVEEVVLPKNLRDPTRLKGNAFVTLKERADLVAVLKFNGTKLNERTVYVSVAAPRRGGGADVDWSSARGSNFQGDGREDAPDLDWGAARGSNFRGPRREREEVDIDWTAARGSNFQGSSRPPRREREEVDIDWSAARGSNFQGSSRPPRREREEPDIDWSAARGSNFQSSSRPPRREREEPDIDWSAARGSNFQSSSRPPRREREKEEPALDWGAARGAQFGKPQQTKNTYKDRSLTNKKTTDEQPKIQKSVYDVLRTEDDDEDEEAEKQNGDAKENKVDAAVEKLQDKTAQLTVEDGDNWEVVGKK
B7: RpL20a (protein, UniProt P0CX23 1-172)
chain: MAHFKEYQVIGRRLPTESVPEPKLFRMRIFASNEVIAKSRYWYFLQKLHKVKKASGEIVSINQINEAHPTKVKNFGVWVRYDSRSGTHNMYKEIRDVSRVAAVETLYQDMAARHRARFRSIHILKVAEIEKTADVKRQYVKQFLTKDLKFPLPHRVQKSTKTFSYKRPSTFY
B8: Scp160 (protein, UniProt P06105 1-1222)
chain: MSEEQTAIDSPPSTVEGSVETVTTIDSPSTTASTIAATAEEHPQLEKKPTPLPSLKDLPSLGSNAAFANVKVSWGPNMKPAVSNSPSPSPSAPSLTTGLGAKRMRSKNIQEAFTLDLQSQLSITKPELSRIVQSVKKNHDVSVESTLSKNARTFLVSGVAANVHEAKRELVKKLTKPINAVIEVPSKCKASIIGSGGRTIREISDAYEVKINVSKEVNENSYDEDMDDTTSNVSLFGDFESVNLAKAKILAIVKEETKNATIKLVVEDEKYLPYIDVSEFASDEGDEEVKVQFYKKSGDIVILGPREKAKATKTSIQDYLKKLASNLDEEKVKIPSKFQFLIDAEELKEKYNVIVTFPSTPDDELVSFVGLRDKVGEAITYARSSSKSYVVESLDISKAHSKNLTHAKNLIMYFTKYSVLKGLEESHPNVKISLPSIQSLPTAETVTIHISAKSDEANDIKAVRKELISFVNNIPPSETLVITDLDYELFGGSIKHCLLASESSVAFVQFGDYYPNDNSILLVALTEDEDFKPSIEEIQASLNKANESLNSLRTKQNNMETKTYEFSEEVQDSLFKPSSATWKLIMEDISEQEGHLQIKLHTPEENQLTVRGDEKAAKAANKIFESILNSPSSKSKMTVNIPANSVARLIGNKGSNLQQIREKFACQIDIPNEENNNASKDKTVEVTLTGLEYNLTHAKKYLAAEAKKWADIITKELIVPVKFHGSLIGPHGTYRNRLQEKYNVFINFPRDNEIVTIRGPSRGVNKAHEELKALLDFEMENGHKMVINVPAEHVPRIIGKNGDNINDIRAEYGVEMDFLQKSTDPKAQETGEVELEITGSRQNIKDAAKRVESIVAEASDFVTEVLKIDHKYHKSIVGSGGHILREIISKAGGEEIRNKSVDIPNADSENKDITVQGPQKFVKKVVEEINKIVKDAENSVTKTIDIPAERKGALIGPGGIVRRQLESEFNINLFVPNKDDPSGKITITGAPENVEKAEKKILNEIIRENFDREVDVPASIYEYVSERGAFIQKLRMDLSVNVRFGNTSKKANKLARAPIEIPLEKVCGSTEGENAEKTKFTIEEVGAPTSSEEGDITMRLTYEPIDLSSILSDGEEKEVTKDTSNDSAKKEEALDTAVKLIKERIAKAPSATYAGYVWGADTRRFNMIVGPGGSNIKKIREAADVIINVPRKSDKVNDVVYIRGTKAGVEKAGEMVLKSLRR

Molecular target: T1, Clu1-GFP-BirA* (S. cerevisiae) (UniProt Q03690)
T1 sequence: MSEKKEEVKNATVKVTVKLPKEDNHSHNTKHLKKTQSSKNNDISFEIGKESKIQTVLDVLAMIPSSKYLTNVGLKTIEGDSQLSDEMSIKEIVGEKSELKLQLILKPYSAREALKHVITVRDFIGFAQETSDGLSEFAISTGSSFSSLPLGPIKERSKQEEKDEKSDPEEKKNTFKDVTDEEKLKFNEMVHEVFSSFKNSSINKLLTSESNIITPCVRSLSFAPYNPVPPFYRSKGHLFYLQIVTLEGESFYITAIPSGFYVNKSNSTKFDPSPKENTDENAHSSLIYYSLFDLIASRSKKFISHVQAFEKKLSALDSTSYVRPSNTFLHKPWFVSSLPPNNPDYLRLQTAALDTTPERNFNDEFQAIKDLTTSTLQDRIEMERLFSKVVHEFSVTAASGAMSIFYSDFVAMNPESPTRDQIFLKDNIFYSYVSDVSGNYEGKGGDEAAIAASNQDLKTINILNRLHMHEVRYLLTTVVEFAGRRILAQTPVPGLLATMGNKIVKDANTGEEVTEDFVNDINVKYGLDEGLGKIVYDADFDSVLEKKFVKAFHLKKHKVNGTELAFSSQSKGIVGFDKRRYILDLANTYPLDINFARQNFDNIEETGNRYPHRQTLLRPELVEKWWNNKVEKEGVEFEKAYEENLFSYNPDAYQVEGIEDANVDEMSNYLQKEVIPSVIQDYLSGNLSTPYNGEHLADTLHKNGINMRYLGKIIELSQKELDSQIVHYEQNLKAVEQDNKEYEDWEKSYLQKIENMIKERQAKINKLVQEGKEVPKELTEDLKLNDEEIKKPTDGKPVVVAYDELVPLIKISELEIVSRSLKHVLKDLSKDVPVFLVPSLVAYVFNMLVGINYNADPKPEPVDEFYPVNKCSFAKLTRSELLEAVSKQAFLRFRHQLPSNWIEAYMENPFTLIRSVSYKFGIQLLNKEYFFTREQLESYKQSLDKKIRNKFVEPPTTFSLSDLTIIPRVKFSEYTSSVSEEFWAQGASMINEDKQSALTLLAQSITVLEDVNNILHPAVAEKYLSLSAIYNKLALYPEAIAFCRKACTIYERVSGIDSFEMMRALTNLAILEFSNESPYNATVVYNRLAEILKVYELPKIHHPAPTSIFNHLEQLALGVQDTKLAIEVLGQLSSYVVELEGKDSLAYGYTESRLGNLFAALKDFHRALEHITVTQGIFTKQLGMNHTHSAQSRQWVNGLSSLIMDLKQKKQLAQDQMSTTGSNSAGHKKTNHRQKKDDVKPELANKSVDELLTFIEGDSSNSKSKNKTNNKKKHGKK
Experiment: proximity labelling; BioID: knock-in Clu1-GFP-BirA* strain against a strain expressing cytosolic BirA*; 50 uM biotin for 16 h, log phase and PD phase; streptavidin agarose purification in 8 M urea, 1% SDS; LC-MS/MS, label-free quantification

binding, binds:
translation initiation factor eIF5 (Tif5) (from UniProt P38431 1-405), B1, B2, B3, B4, B5, B6, B7, B8
